Residue numbers refer to the chain shown, from its start. In names and notes the source's numbering stands. Results are given in words; binding and its absence hold for the method and conditions named. Binding seen in cells or lysates may run through a third protein. Some entries that bind do so weakly or less than the wild type. Sequences can lack the tags named with a protein.
T1: HA-tagged Cdc23 (Cdc23/SpMcm10) (S. pombe) (UniProt O42709)
T1 sequence: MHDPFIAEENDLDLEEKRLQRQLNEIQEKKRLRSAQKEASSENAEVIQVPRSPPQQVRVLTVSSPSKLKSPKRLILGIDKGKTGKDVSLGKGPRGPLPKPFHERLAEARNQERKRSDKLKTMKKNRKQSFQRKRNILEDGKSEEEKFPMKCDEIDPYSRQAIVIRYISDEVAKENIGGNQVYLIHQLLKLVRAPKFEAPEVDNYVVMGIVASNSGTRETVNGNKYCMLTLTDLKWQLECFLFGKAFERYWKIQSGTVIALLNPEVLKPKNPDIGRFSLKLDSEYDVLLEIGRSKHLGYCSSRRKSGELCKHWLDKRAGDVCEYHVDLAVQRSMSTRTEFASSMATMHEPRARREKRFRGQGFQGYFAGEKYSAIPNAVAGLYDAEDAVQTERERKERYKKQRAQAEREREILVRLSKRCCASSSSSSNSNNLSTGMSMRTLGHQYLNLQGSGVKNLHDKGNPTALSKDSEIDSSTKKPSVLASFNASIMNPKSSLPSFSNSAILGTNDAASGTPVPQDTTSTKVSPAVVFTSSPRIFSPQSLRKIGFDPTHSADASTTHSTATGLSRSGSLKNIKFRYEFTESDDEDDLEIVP

B1: Swi1 (TAP-tagged) (protein, UniProt Q9UUM2 1-971)
chain: MELDEVIQGIVSAIGGFDYSDDEKVYVLGDEALACLKDLKRYLQVVDEKYKVWQIRSLLSSLQLVTNDICPILSDWDKDITNYRNWRIALACVELLVPLTWPLETEHETFRENVDVLYNLRQAQSNYKNSILSYKKGSVLSAILAVLLKPLSTPAESRTLRDKGIIRIVLLLFRNILQIDELKTKNETIISFAKAHILDLIVTLVSNLDEFEHFDVYILEIVYNLIRGCKPSALFSDASLTNSQTELNSLLLKESTQNRYLKRNAHTRHNRFGTMLSVQTEDRRFTIASQNIKTDGLDELDSHKRFRKRGTRRKHFDDINKSFFINTEAGTALRNFAVEFLEAGFNPLFQSLLKDLEREDPRVLPIHKMQLLYVQSFFLEFMRFSSKPKKTEEIYSNDYSFGLAASVFDQRALIMHNRLMVESFEMKQWSTFQASMLSMTQLLFTLRSMTLCSSEIYQRIADNLLSNIFYQEEILLLVYSALKHFKTQSFGYLDAITELTIVLLKELEKFSSAKQYLYVKKRRRNQKSVDSNVLESDEDEESSLINANAAVEDRLFDFGRYESRYCDNGCIDSFVLFLQCYQDLDSKQIHRAISFFYRIFVKQKCHVYLYRLDFLRVLDKMFNDHVYFSTTNSARQDFEQFFVYYMRKLSDALKDVPALFIELPFPKLTDTFYYLEYGKSPLFSIHGSRKGPLYETVPGLSHLEKVAAVVACLINENKSDLLDELKVQLNCLISERKLITLADENKYINEGGNDGERMGKNLKGDTDSFNTALLKDGKFRLLLELCGFEESDNNIDVQALWKLPNSVIIDELVEHAMLLRRFTDDPPTFEGTKPEDLLVRKQRGNVRLPSSSEGETSDEEIEFEADDPITFANRREALNKITDRKRKKMKTNETIIDHTTRKKKENHLRSAKYIVDSDDDSETDIAFFQSEAALREKNAQKASALFKRIDDLEMEGKLQEIEQLSENSSSD
B2: DNA Polymerase α catalytic subunit (Polα/Swi7), wild type (protein, UniProt P28040 1-1405)
chain: MRKRNAGIKPSQRFAELRALRQAGKTRASTYESKENEELYDNVSEEEYRKIVRQRLDEDDFVVDDNGAGYVDNGYDEWDQSHYSDEDDENEKGSSGRKRKKSKNVLAEPNQQIGAFFKANAIQPASRIANRKNNEKEDEFMAEILGSIDQDIPERLSTKKGNRSHTTSNAKRRSQKAASSISTTNVVSSDPKKYIPETVPSTPQPASSLPIPSSPPAALETEENVDSQPMELDEPELPVGSDAPIIDVEESIAMKPLMSHDQVDDTASLSKATISQQPLSPMTPLSSELDVSAFSEINSKIKNVDVPASSYSSPISKVSPSDVTEEDGSLFFFWMDYTEMYGSLCLFGKVYDKATKQYVSCFLKVDGIMRSLYFLPRPSSSSVSEDSIAAQTKDVYDEVANLLSKRGVKEWKSRVSKYKYAFELEDVPRTADYLEVIYSYSYPALPTDLTGSSFSHVFGTNTALFEQFVLSRRVMGPCWLKIQQPNFDAVKNASWCRVEIGCSSPQNISVSFEKNEITSKTPPMTVMSLAFRTLINKEQNKQEVVMISARIFENVDIEKGLPANDMPSYSFSLIRPLKQIFPNGFEKLARQHKSSIFCERSEVSLLNNFLNKVRTYDPDVYFGHDFEMCYSVLLSRLKERKIHNWSSIGRLRRSEWPRSFNRSSQQFVEKQIIAGRLMCDLSNDFGRSMIKAQSWSLSEIVLKELDIKRQDINQEKALQSWTDTAHGLLDYLVHCEIDTFFIAAVAFKIQMLQLSKNLTNIAGNSWARTLTGTRAERNEYILLHEFKKNGYIVPDKQQSIRRHAEAFGAEDGLQEESLGKKKDKYKGGLVFEPQKGLYETCILVMDFNSLYPSIIQEYNICFTTVDRSPSNSDSDDQIPDTPSASANQGIFPRLIANLVERRRQIKGLLKDNSATPTQRLQWDIQQQALKLTANSMYGCLGYTKSRFYARPLAVLITYKGREALMNTKELADQMGLQVIYGDTDSVMLNTNVTDKNHALRIGNEFKEKVNERYSKLEIDIDNVYQRMLLHAKKKYAALQLDSQGKPNLDVKGLDMKRREFCTLAKEASKFCLDQILSGELTETVIENIHSYLMDFSEKMRNGKFPANKFIIFNRLGKNPEDYPNGKTMPFVQVALKKKARGENVRVGDVIPFIIAGSDADGHPADRAYSPQEIMNTNSTLVIDYNYYLSHQILPPIERVIAPIEGTNRARLAECLGLDARKYYSHETSESSAFQRYESTLTDDQCFINVSPLLLKCPSCNATSFSLRSVKSLKETLYANTVECDCGYEYSDFTIILQFSSQLRDFINLYYEGILVCDDSSCGNRTRQMSVYGKRCCNKSCRGSVHFEYNDEQLYNQIKFLLKAVQTTTGATRNGIIRCNAINKNISRIMNKNAREFVDMGLIFSS
B3: DNA Polymerase α catalytic subunit, swi7-1 mutant (G1116E) (protein, UniProt P28040 1-1405)
chain: B2 chain with G1116E
B4: Swi3 (myc-tagged) (protein, UniProt O14350 1-181)
chain: MSTAASDSGVEKLVEENKREEVKKNEEEKEFDLGLEENPDSVKKPRKRLAKFDEERLISENGIPKLRKMMRKVKLKGKGHEAKDLKQLLGMYHIWTHELYPRATFDDSISYLKTLGKHRSVKVRRRGWINEIAVENGSDSNASLFTGPSSNSLVNLTSGDPYVQDTADDAFVAQDNDTQLE

The binders below were run against T1, HA-tagged Cdc23 (Cdc23/SpMcm10) (S. pombe) (assay: co-IP).

Row | binding | Binder
1 | binds | B1
2 | binds | B2
3 | binds | B3
4 | no binding | B4

— paper doi:10.1101/303180
